Results from paper doi:10.1101/2024.12.20.629444.
These are yes or no findings as the source states them, for the method shown. Binding seen in cells or lysates may run through a third protein. Some results given as binding are weak or reduced against the parent protein; the word gives no strength.

Chains of the proteins cited; added tags and fusions are not shown.
UniProt P46937: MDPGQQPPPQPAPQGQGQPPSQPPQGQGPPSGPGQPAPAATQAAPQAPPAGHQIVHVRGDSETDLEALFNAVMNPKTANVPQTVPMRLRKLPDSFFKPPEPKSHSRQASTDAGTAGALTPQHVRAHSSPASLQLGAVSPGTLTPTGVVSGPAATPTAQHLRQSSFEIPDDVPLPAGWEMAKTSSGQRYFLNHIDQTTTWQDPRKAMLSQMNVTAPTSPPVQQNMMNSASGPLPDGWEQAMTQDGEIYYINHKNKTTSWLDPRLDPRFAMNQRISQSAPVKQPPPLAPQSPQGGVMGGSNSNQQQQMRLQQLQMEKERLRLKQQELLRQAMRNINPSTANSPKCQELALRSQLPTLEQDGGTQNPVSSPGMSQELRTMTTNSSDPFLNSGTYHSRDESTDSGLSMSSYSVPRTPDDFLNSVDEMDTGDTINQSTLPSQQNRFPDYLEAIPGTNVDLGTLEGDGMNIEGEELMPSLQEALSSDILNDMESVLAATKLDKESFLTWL
UniProt Q14839: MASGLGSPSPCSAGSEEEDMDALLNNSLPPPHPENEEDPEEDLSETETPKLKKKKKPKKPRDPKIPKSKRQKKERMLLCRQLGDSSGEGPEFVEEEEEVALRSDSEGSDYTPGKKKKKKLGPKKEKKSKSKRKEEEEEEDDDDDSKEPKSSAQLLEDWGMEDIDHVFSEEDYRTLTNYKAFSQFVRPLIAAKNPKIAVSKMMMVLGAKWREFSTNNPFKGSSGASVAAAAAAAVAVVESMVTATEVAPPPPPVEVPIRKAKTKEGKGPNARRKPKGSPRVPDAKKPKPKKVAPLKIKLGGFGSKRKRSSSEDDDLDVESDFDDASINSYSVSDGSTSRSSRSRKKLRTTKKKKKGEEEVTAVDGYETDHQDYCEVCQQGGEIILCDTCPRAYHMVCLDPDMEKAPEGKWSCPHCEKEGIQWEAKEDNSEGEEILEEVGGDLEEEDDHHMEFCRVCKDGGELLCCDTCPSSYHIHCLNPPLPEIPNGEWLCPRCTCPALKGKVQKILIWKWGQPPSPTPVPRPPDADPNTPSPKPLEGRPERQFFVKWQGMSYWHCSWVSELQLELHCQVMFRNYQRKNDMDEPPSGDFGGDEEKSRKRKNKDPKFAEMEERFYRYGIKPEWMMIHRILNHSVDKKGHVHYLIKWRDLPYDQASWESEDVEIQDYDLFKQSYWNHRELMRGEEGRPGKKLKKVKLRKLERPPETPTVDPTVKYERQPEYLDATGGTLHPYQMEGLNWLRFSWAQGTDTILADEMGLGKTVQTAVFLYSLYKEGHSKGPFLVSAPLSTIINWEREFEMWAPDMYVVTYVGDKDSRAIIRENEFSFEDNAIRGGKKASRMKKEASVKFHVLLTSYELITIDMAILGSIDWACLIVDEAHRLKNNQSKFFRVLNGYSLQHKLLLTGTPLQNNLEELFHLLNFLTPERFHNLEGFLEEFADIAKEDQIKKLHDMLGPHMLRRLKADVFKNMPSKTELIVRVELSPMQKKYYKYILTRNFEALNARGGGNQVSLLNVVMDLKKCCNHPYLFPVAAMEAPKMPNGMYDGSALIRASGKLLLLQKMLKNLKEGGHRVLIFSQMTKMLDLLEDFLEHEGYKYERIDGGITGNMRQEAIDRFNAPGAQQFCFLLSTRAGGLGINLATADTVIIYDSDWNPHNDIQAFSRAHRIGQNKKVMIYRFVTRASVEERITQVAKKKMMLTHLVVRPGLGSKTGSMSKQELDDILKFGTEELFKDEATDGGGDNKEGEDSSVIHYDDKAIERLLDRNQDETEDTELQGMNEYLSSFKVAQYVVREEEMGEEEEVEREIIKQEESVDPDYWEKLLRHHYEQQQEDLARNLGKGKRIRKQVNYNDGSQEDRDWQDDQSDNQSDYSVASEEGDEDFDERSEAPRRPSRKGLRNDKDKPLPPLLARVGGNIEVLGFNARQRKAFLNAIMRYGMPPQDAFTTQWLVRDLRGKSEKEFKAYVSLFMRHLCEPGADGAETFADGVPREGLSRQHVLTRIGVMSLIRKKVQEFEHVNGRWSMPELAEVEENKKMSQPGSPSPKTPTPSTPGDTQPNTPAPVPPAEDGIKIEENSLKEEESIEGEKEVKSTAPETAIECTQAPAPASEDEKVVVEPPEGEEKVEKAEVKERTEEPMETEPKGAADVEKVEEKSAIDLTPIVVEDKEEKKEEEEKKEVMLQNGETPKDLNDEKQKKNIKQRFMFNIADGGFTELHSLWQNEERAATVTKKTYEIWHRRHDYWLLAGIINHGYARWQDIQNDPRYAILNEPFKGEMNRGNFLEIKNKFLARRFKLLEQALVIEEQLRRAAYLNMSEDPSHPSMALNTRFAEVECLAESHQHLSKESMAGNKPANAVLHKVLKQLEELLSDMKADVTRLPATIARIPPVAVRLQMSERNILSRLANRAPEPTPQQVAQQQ
UniProt Q5UIP0: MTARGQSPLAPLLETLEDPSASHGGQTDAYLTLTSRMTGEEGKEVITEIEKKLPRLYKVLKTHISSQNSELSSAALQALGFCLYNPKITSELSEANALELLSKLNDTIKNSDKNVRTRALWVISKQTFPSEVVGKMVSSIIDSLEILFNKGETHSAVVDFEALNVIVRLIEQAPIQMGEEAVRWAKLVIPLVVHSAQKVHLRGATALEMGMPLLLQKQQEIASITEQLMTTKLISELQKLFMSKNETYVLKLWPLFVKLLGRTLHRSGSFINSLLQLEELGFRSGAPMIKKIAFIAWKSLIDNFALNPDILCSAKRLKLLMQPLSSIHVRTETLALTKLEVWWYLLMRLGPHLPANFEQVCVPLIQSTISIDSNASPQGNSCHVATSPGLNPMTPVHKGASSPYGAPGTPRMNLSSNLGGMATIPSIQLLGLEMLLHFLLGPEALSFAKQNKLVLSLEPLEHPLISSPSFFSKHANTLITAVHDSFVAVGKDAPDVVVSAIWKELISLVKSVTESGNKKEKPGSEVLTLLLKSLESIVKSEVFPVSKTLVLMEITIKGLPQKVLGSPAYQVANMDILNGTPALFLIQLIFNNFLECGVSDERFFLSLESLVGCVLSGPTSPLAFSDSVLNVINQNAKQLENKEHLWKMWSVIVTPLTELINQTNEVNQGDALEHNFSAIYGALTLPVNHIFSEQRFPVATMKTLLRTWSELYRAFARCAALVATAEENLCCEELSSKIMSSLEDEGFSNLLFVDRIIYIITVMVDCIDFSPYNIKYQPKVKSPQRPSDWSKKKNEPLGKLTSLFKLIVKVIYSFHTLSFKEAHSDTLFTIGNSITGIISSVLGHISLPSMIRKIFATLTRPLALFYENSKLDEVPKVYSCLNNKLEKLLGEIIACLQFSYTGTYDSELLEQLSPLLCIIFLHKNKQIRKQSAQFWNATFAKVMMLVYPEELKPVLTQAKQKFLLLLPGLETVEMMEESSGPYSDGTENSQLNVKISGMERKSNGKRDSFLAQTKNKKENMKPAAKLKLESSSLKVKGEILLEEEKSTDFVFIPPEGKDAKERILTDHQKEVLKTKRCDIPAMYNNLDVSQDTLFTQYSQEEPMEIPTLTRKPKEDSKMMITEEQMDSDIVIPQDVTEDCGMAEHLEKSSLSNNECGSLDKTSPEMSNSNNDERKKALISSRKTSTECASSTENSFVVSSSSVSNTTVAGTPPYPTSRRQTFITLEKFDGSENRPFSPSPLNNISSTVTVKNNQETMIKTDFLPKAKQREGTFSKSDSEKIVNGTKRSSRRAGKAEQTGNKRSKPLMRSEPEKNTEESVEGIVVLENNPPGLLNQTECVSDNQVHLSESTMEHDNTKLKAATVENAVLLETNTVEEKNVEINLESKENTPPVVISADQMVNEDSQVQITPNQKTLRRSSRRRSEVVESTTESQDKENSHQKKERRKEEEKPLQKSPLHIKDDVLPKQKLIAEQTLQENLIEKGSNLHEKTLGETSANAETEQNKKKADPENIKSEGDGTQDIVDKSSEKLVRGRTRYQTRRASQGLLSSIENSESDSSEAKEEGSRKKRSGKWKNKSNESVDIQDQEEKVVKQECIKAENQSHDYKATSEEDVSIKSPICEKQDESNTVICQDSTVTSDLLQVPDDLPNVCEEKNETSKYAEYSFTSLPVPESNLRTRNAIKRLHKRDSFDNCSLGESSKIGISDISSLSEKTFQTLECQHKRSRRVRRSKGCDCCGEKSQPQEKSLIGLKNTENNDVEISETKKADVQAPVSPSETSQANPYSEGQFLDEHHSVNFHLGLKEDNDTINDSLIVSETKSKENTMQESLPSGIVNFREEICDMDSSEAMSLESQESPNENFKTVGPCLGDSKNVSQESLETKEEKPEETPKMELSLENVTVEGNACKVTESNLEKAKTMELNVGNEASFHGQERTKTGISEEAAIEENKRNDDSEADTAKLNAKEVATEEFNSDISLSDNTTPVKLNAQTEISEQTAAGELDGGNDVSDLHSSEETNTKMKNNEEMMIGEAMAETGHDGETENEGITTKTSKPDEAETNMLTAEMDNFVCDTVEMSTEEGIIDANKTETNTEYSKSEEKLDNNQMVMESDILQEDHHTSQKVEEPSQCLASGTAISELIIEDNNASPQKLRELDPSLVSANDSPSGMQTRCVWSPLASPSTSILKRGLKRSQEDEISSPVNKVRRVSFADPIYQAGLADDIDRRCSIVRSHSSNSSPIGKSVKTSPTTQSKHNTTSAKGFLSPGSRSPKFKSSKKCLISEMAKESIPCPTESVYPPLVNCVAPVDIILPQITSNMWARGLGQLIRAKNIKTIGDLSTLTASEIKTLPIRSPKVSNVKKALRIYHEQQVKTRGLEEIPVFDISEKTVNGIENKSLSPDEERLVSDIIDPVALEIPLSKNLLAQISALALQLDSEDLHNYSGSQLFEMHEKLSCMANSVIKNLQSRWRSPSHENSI

Experiments:
[1] = target: Yes-associated protein (human (endogenous in SCC13, NHK and HARA)) (UniProt P46937); assay: co-IP
[2] = target: Yes-associated protein (human (endogenous in SCC13, NHK and HARA)) (UniProt P46937); assay: co-IP; remark: listed apart in the source
[3] = target: Yes-associated protein (human (endogenous in SCC13, NHK and HARA)) (UniProt P46937); assay: proximity ligation

Chromodomain-helicase-DNA-binding protein 4 (from UniProt Q14839 1-1912)
binding [1]: binds

RIF1 (from UniProt Q5UIP0 1-2472)
binding [2]: binds
binding [1]: binds
binding [3]: binds
